System: M. tuberculosis isolates
Assay: microbe, parasite or virus in culture
Format: cell-based, Mycobacterium tuberculosis

## NNC(=O)c1ccncc1 [Isoniazid, isoniazid]
Mycobacterium tuberculosis, read-out: MIC of agar proportion resistant isolates
  MIC: 2 mg/L
Listed as INH
  MIC of agar proportion resistant isolates: 4 mg/L
